PubChem BioAssay AID504774, Drosophila RNAi Screening Center | 2011
Purpose: 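Fly genes whose loss alters survival after alkylation damage to DNA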 (primary screen). Cells: Drosophila Kc167 cells. Reagent: long dsRNA against Drosophila genes, about 0.25 µg dsRNA per well. Duration: about 6 days: 3 days knock-down, then 3 days with or without MMS. Challenge: methyl methanesulphonate 0.004% (w/v) for 3 days after knock-down. Detection: 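ATP-dependent luminescence as a measure of live cells in MMS-exposed wells, quantile normalised within each plate, with replicate values also given as a mean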. Direction: mean viability with MMS and viability with MMS: higher = more surviving cells after MMS.
In all, the deposit lists about 23,000 reagents; below is an unselected part of those that have a named target and a result. 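Values are quantile-normalised luminescence on an arbitrary scale; higher means more cells surviving MMS.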 Names joined by + are all predicted targets of the reagent. Reagent sequences are not shown.

predicted target	dsRNA	mean viability with MMS	viability with MMS, replicate 1	viability with MMS, replicate 2
RpS27	DRSC14244	3.21e6	3.65e6	3.68e6
dbf	DRSC02570	3.27e6	3.66e6	3.72e6
Ugalt	DRSC18467	3.43e6	3.84e6	3.95e6
CG11226	DRSC11639	3.69e6	4.15e6	4.15e6
Ptpa	DRSC00776	3.65e6	4.19e6	4.11e6
Lerp	DRSC14750	3.41e6	3.84e6	3.84e6
Lerp	DRSC14751	3.78e6	4.16e6	4.37e6
Lerp	DRSC16030	3.65e6	4.12e6	4.14e6
Lerp	DRSC16031	3.74e6	4.29e6	4.15e6
CG31465	DRSC16090	3.47e6	3.95e6	3.91e6
Cpr72Ea	DRSC10451	3.57e6	4.05e6	4.04e6
az2	DRSC07580	3.15e6	2.56e6	3.69e6
Nagk	DRSC15994	3.55e6	4.00e6	4.07e6
Prosbeta5R2	DRSC01617	3.55e6	4.08e6	3.96e6
MED14	DRSC08235	2.81e6	3.52e6	3.54e6
mid	DRSC02977	3.49e6	3.84e6	3.86e6
mid	DRSC21493	3.79e6	4.20e6	4.35e6
CG11168	DRSC14292	3.58e6	4.13e6	3.98e6
Mitofilin	DRSC16742	3.46e6	3.89e6	3.96e6
Chmp1	DRSC10401	3.66e6	4.19e6	4.07e6
Hsp60C	DRSC03036	3.69e6	4.12e6	4.18e6
CG30496	DRSC06805	3.76e6	4.40e6	4.12e6
CG3556	DRSC18309	3.38e6	3.80e6	3.89e6
Nadk2	DRSC07072	3.56e6	4.02e6	4.06e6
galla-1	DRSC05987	3.67e6	4.18e6	4.08e6
tara	DRSC17076	3.54e6	3.99e6	4.06e6
tara	DRSC23014	3.83e6	4.39e6	4.27e6
mRpS22	DRSC14488	3.65e6	3.91e6	4.35e6
CG6195	DRSC15989	3.46e6	4.01e6	3.86e6

Reformatted: results already given
predicted target | dsRNA | mean viability with MMS | viability with MMS, replicate 1 | viability with MMS, replicate 2
Mitofilin | DRSC16742 | 3.46e6 | 3.89e6 | 3.96e6
Chmp1 | DRSC10401 | 3.66e6 | 4.19e6 | 4.07e6
Hsp60C | DRSC03036 | 3.69e6 | 4.12e6 | 4.18e6
CG30496 | DRSC06805 | 3.76e6 | 4.40e6 | 4.12e6
CG3556 | DRSC18309 | 3.38e6 | 3.80e6 | 3.89e6
Nadk2 | DRSC07072 | 3.56e6 | 4.02e6 | 4.06e6

The listing continues.
predicted target	dsRNA	mean viability with MMS	viability with MMS, replicate 1	viability with MMS, replicate 2
CG7058	DRSC20021	3.62e6	4.22e6	3.95e6
CG13807	DRSC08342	3.57e6	4.03e6	4.06e6
CG14564	DRSC11725	3.79e6	4.20e6	4.25e6
CG14564	DRSC22388	3.44e6	3.68e6	4.19e6
bib	DRSC03496	3.52e6	4.04e6	3.94e6
p53	DRSC17024	3.55e6	4.00e6	4.04e6
ORY	DRSC22883	3.37e6	3.92e6	3.85e6
CG3610	DRSC15502	3.59e6	4.07e6	4.10e6
CG34168	DRSC01938	3.59e6	4.02e6	4.12e6
Atx2	DRSC15727	2.52e6	3.51e6	3.51e6
Atx2	DRSC23010	3.15e6	3.74e6	3.27e6
nolo	DRSC03705	3.70e6	4.08e6	4.35e6
nolo	DRSC03719	3.59e6	4.14e6	4.02e6
nolo	DRSC03720	3.49e6	4.01e6	3.89e6
CG14645	DRSC12231	3.62e6	4.16e6	4.03e6
srp	DRSC13125	3.52e6	3.92e6	4.06e6
srp	DRSC17068	2.62e6	3.54e6	3.43e6
srp	DRSC23166	2.75e6	3.60e6	2.42e6
CG14655	DRSC12241	1.94e6	4.08e6	4.11e6
TTLL3A	DRSC02143	3.50e6	3.94e6	4.00e6
CG32548	DRSC19627	3.48e6	3.92e6	3.97e6
CG32548	DRSC19982	3.72e6	4.28e6	4.21e6
CG15254	DRSC01870	3.66e6	3.97e6	3.85e6
CG15254	DRSC21765	3.31e6	3.74e6	3.91e6
sw + Sdic4 + Sdic3 + 2 more	DRSC20696	3.49e6	3.95e6	3.98e6
CG5509	DRSC15822	3.46e6	3.89e6	3.99e6
CG6650	DRSC10685	3.44e6	4.05e6	3.73e6
Rbp1	DRSC16817	3.57e6	4.02e6	4.12e6
Mdr49	DRSC07466	3.39e6	3.91e6	3.74e6
CG17350	DRSC02611	3.62e6	4.16e6	4.06e6
TrpRS-m	DRSC10848	3.49e6	3.96e6	3.94e6
kat-60L1	DRSC12184	3.87e6	4.42e6	4.34e6
Polr1D + DCTN6-p27	DRSC02094	3.47e6	3.90e6	3.94e6
larp	DRSC14728	3.48e6	3.84e6	4.00e6
larp	DRSC16984	3.45e6	3.94e6	3.84e6
larp	DRSC21856	3.37e6	3.90e6	3.87e6
CG15731	DRSC19698	3.50e6	3.86e6	4.06e6
CG15731	DRSC21820	3.46e6	3.94e6	3.94e6
veg (retired record)	DRSC07714	3.65e6	4.09e6	4.14e6
tay	DRSC20142	3.55e6	4.39e6	3.72e6
Ugt37A1	DRSC02114	3.59e6	4.00e6	4.16e6
CG15676	DRSC04267	3.55e6	4.03e6	4.02e6
CG13857	DRSC14707	3.50e6	3.95e6	3.99e6
CG32533	DRSC19443	3.61e6	4.08e6	4.13e6
CG32533	DRSC19553	3.44e6	3.92e6	3.90e6
Tsp42Ea	DRSC04982	3.64e6	4.05e6	4.13e6
Tsp42Ea	DRSC06792	3.67e6	4.11e6	4.13e6
Cen	DRSC02704	3.36e6	3.72e6	3.69e6
Kmn1	DRSC19666	3.44e6	3.88e6	3.92e6
CG16865	DRSC01904	3.47e6	3.92e6	3.96e6
CG1387	DRSC17904	3.63e6	4.15e6	4.03e6
CG9101	DRSC20152	3.51e6	4.07e6	3.88e6
Blm + CG14721	DRSC14943	3.44e6	3.90e6	3.94e6
CG31211	DRSC14953	3.50e6	3.87e6	4.05e6
CG31211	DRSC15344	3.54e6	3.95e6	4.10e6
CG31211	DRSC21478	3.69e6	4.22e6	4.09e6
CG13040	DRSC09921	3.52e6	4.00e6	3.97e6
Ugt36A1	DRSC00748	3.67e6	4.09e6	4.17e6
